Results on four compounds are retold here after US8895744B2, “Alfa-carboline inhibitors of NPM-ALK, RET, and Bcr-Abl” (Universita' Degli Studi di Milano-Bicocca, priority 2008, dated 2014).

Amino acid sequences for entries named in this document (tags omitted). Residues count along the entry.
UniProt Q9UM73, whole entry: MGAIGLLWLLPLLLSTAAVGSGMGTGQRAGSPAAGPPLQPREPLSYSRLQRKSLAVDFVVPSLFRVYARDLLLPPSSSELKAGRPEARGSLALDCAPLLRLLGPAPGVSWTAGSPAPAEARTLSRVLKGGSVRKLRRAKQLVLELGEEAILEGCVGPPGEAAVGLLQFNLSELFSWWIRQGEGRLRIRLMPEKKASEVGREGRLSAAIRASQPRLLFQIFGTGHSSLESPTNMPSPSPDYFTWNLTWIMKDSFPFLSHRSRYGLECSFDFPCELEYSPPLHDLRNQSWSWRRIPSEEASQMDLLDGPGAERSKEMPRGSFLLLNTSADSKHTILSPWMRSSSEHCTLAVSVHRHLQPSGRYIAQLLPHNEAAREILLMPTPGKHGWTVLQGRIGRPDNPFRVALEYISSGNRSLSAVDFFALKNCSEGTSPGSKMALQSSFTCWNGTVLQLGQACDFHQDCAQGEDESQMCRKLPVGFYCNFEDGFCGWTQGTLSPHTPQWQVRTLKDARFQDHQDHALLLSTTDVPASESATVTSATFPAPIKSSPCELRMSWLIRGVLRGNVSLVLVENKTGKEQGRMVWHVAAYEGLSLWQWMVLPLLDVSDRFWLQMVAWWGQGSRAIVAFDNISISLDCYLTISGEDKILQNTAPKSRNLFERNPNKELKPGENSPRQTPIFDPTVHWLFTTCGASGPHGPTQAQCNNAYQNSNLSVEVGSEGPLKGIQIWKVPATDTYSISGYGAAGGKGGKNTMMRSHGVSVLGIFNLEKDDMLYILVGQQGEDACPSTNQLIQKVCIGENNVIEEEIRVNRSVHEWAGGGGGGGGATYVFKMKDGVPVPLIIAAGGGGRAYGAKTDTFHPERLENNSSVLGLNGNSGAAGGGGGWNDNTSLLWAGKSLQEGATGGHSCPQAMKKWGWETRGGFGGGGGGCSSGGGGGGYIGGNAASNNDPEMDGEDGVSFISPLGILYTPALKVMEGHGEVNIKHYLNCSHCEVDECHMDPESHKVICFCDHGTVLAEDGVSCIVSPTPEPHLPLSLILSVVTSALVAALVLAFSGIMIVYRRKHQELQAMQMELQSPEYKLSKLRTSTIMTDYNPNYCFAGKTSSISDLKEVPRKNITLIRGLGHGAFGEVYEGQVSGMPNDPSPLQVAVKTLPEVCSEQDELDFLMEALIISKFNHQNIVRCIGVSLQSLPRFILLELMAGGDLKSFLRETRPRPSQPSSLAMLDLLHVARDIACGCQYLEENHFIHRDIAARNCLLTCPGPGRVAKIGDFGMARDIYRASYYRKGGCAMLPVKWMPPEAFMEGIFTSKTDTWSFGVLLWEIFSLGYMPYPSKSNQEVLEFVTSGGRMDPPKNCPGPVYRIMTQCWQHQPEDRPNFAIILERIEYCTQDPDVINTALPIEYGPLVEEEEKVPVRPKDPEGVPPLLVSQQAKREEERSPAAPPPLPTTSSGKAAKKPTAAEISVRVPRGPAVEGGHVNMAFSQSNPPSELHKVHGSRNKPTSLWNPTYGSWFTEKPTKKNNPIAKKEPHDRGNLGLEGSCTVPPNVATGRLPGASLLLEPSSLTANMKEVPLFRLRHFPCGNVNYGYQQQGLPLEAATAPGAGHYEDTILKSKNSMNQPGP
UniProt Q9UM73, 19-1620 limits assumed: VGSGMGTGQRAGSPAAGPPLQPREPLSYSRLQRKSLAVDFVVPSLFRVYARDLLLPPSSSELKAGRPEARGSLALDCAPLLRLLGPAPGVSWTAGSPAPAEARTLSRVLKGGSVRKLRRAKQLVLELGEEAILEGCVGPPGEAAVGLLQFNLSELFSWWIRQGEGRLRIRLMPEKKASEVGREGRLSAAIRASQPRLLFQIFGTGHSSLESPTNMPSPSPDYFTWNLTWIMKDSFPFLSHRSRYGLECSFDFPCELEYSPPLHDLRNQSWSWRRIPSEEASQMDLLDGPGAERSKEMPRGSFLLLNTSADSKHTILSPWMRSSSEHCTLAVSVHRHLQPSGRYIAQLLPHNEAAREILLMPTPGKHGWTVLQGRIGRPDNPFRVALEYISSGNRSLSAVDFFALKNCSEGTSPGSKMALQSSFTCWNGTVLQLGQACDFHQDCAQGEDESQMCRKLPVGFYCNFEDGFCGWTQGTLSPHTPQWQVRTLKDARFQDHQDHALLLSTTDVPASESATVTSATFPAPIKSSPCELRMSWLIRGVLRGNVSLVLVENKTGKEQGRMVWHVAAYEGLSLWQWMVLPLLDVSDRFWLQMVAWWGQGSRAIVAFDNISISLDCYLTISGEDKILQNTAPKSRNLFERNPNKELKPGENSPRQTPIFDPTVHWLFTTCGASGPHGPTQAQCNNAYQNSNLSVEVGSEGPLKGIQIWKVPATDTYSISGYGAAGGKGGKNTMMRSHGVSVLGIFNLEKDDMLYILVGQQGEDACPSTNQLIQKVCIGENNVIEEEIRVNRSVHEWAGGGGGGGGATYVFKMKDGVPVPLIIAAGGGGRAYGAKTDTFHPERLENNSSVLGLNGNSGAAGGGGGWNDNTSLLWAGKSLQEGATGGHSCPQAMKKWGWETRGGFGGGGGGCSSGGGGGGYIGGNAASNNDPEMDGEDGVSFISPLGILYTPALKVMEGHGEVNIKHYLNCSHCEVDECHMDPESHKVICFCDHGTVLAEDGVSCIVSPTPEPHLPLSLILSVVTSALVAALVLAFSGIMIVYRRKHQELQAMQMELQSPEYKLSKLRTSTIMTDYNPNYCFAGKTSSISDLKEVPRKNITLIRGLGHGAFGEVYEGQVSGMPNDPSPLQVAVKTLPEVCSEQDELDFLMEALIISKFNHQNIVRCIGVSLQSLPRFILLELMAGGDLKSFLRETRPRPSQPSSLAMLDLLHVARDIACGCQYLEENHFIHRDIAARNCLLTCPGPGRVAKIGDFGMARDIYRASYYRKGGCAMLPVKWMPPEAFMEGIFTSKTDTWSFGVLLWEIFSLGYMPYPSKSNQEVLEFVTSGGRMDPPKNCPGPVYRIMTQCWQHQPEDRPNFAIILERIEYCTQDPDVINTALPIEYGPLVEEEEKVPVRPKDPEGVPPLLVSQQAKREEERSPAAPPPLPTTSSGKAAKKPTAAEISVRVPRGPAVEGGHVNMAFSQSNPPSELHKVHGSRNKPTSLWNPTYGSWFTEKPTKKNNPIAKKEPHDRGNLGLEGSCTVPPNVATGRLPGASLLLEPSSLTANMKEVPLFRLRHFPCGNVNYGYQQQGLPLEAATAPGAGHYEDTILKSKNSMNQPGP
UniProt P00519, whole entry T315I: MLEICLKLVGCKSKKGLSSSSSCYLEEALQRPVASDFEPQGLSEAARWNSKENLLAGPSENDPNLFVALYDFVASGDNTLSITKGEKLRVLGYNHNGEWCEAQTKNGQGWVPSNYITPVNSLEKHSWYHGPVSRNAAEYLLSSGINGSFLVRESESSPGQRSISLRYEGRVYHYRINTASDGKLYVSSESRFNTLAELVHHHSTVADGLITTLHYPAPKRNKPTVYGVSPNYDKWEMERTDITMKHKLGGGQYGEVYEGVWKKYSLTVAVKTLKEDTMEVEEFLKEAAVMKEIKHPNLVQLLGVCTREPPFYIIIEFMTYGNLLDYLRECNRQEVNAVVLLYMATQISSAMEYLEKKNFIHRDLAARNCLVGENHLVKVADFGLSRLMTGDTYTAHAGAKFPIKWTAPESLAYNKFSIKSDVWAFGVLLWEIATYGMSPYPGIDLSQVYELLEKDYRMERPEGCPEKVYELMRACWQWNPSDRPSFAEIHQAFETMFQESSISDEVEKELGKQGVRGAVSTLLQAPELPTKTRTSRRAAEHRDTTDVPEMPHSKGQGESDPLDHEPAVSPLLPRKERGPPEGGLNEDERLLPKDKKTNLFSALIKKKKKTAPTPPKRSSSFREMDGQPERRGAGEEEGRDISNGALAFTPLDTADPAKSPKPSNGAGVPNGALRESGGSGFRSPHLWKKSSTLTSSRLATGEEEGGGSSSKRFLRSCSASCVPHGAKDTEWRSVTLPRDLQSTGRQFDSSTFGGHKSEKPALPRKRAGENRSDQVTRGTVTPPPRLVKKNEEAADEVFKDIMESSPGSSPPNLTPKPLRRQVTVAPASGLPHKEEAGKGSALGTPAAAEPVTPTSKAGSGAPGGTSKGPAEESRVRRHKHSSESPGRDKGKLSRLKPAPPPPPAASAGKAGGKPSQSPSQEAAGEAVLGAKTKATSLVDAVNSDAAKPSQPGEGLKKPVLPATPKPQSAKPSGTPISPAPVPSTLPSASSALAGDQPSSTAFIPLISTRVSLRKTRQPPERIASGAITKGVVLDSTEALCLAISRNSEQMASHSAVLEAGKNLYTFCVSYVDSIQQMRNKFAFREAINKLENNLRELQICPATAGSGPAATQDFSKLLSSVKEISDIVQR
UniProt P07949, 29-1114 limits assumed: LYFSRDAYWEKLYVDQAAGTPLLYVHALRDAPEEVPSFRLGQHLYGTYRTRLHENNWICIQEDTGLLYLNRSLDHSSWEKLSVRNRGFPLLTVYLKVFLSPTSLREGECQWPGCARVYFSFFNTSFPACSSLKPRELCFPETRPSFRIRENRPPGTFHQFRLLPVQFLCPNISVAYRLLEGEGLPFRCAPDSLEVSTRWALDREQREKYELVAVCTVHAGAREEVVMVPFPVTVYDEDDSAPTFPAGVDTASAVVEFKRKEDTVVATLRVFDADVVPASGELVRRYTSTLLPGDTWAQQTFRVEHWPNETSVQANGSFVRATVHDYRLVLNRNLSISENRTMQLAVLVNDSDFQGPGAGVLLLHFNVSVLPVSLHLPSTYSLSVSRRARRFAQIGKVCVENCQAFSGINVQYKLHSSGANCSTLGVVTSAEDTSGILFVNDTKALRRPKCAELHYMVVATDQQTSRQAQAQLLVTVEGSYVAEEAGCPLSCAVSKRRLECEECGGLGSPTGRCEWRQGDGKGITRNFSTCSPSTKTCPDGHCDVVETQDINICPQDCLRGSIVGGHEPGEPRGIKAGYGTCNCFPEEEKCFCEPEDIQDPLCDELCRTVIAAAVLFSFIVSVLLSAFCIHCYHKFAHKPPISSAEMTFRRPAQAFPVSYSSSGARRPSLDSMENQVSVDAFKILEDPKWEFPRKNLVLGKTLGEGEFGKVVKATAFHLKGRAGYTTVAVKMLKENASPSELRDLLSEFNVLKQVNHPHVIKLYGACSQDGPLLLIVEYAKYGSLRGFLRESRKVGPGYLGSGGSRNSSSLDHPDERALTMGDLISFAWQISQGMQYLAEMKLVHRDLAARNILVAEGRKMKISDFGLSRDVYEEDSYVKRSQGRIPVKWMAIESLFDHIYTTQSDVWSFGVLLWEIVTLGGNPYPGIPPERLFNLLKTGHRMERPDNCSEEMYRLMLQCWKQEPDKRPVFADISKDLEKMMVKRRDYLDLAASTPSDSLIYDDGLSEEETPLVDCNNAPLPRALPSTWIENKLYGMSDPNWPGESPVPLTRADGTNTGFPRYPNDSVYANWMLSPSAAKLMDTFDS

Structures are written as SMILES. The match of structure and compound is tentative.

Assay [1] concerns NPM/ALK positive SUDHL-1 cells. Briefly: Tritiated thymidine uptake cell proliferation assay, SUDHL-1. To be noted: read-out: SUDHL (NPM/ALK+) IC50; 3[H]-thymidine uptake, 72 h. On the procedure:
(§1) Inhibition of the proliferation of NPM/ALK positive cells
(§2) Method: Tritiated Thymidine Uptake Cell Proliferation Assay
(§3) The following procedure was used with parent untransformed BaF3 cells, BaF3 cells transformed with the oncogenic fusion protein NPM/ALK, NPM/ALK positive SUDHL-1 cells, ALK-negative U937 cells, NPM/ALK positive KARPAS-299 cells. The parent untransformed BaF3 cells and Alk-negative U937 cells are used as controls. Cells were seeded in U-bottomed 96-well plates at 10 000 cells/well in a volume of 100 μL in supplemented medium. In the case of the parent untransformed BaF3 cells, the medium was supplemented with IL-3. Serial dilutions of inhibitors were added to the appropriate wells and volumes adjusted to 200 μL. Controls were treated with the equivalent volume of vehicle, DMSO, alone. Plates were incubated at 37° C. for 72 h. ^3[H]-thymidine (1 μCi/well) was added for the last 16 h of incubation. Cells were harvested on to paper filters and ^3[H]-thymidine incorporation was measured using a β scintillation counter (1430 MicroBeta, Wallac, Turku, Finland). The 50% inhibitory concentration (IC50) was defined as the concentration of inhibitor, expressed in micromolar, that gave a 50% decrease in ^3[H]-thymidine uptake compared with controls.

The test system of assay [2] is parent untransformed BaF3 cells. The assay is described as follows: Tritiated thymidine uptake cell proliferation assay, parental BaF3 (control). The conditions noted are these: read-out: BaF parental IC50; 3[H]-thymidine uptake, 72 h, medium with IL-3. On the procedure:
as §2, §3
The following procedure was used with parent untransformed BaF3 cells, BaF3 cells transformed with the oncogenic fusion protein bcr-abl, Abl-negative U937 cells, or Bcr-abl positive LAMA-84 cells. The parent untransformed BaF3 cells and Abl-negative U937 cells are used as controls. Cells were seeded in U-bottomed 96-well plates at 10 000 cells/well in a volume of 100 μL in supplemented medium. […] Cells were harvested on to paper filters and ^3[H]-thymidine incorporation was measured using a β scintillation counter (1430 MicroBeta, Wallac, Turku, Finland). […]
(§4) The following procedure was used with parent untransformed BaF3 cells, BaF3 cells transformed with the oncogenic fusion protein RET-PTC2, or RET-negative 11937 cells. […] Cells were harvested on to paper filters and ^3[H]-thymidine incorporation was measured using a β scintillation counter (1430 MicroBeta, Wallac, Turku, Finland). […]

Another assay concerns the target Recombinant ALK kinase (Homo sapiens, UniProt Q9UM73). The assay is described as follows: ALK kinase inhibitory activity, ELISA-based in vitro kinase assay. Format: biochemical. To be noted: read-out: ALK IC50, purified rALK, 0.3 mM ATP. On the procedure: 36. Alk Kinase Inhibitory Activity
Method: ELISA-Based In Vitro Kinase Assay
Recombinant ALK kinase was expressed in Sf9 insect cells using the pBlueBacHis2C baculovirus vector system and purified using an anion exchange Fast Flow Q-sepharose column (Amersham-Pharmacia Biotech) followed by HiTrap™-nickel affinity column (Amersham-Pharmacia Biotech). Purified ALK protein was used to screen inhibitors in the ELISA-based kinase assay. A Nunc Immuno 96 well plate was incubated overnight at 37° C. with coating solution (125 μL/well) containing ALK peptide substrate ([…]) (SEQ ID NO: 1) at various concentrations in PBS. Wells were then washed with 200 μL of wash buffer (PBS-Tween 0.05%) and left to dry for at least 2 h at 37° C. The kinase reaction was performed in the presence of 50 mM Tris pH 7.5, 5 mM MnCl2, 5 mM MgCl2, 0.3 mM ATP and purified rALK in a total volume of 100 μL/well at 30° C. for 15 min. For inhibitor testing the reaction mix was preincubated with the inhibitor or solvent control for 10 min at room temperature before transferring to the ELISA plate. After the reaction wells were washed 5 times with 200 μL of wash buffer. Phosphorylated peptide was detected using 100 μL/well of a mouse monoclonal anti-phosphotyrosine antibody (clone 4G10 Upstate Biotech Ltd) diluted 1:2000 in PBS+4% BSA. After 30 min incubation at room temperature the antibody was removed and wells were washed as described above. 100 μL of a secondary antibody (anti-mouse IgG, Horseradish Peroxidase linked whole antibody, Amersham Pharmacia Biotech) diluted 1:1000 in PBS+4% BSA was added to each well and the plate was incubated again for 30 min at room temperature before washing as above. The plate was developed using 100 μL/well TMB Substrate Solution (Endogen) and the reaction was stopped by adding an equiv.ual volume of H2SO4 0.36 M. Finally, the absorbance was read at 450 nm using an Ultrospec® 300 spectrophotometer (Amersham-Pharmacia Biotech). The concentration of the test solution showing 50% inhibition as compared with the control was expressed as IC50 (μM).
Background: An ELISA detects its analyte on a solid surface through an enzyme-linked reagent.

Assay [3] deals with BaF3 cells transformed with the oncogenic fusion protein NPM/ALK (Homo sapiens, UniProt Q9UM73). Briefly: Tritiated thymidine uptake cell proliferation assay, BaF3 NPM/ALK. The conditions noted are these: read-out: BaF NPM/ALK IC50; 3[H]-thymidine uptake, 72 h. On the procedure: as §1, §2, §3
A further assay deals with ALK-negative U937 cells. Briefly: Tritiated thymidine uptake cell proliferation assay, U937 (control). To be noted: read-out: U937 (ALK−) IC50; 3[H]-thymidine uptake, 72 h. On the procedure: as §2
as §3, with “The 50% inhibitory concentration (IC50) was defined as the concentration of inhibitor, expressed in micromolar, that gave a 50% decrease in ^3[H]-thymidine uptake compared with controls.” left out
as §4

For assay [4], the target named is Recombinant Abl T315I protein (Homo sapiens, UniProt P00519, T315I). Briefly: Abl T315I mutant kinase inhibitory activity, ELISA-based in vitro kinase assay. The format is biochemical. The conditions noted are these: read-out: ABL IC50, purified Abl T315I, 0.3 mM ATP. On the procedure: (§5) Recombinant ALK kinase was expressed in Sf9 insect cells using the pBlueBacHis2C baculovirus vector system and purified using an anion exchange Fast Flow Q-sepharose column (Amersham-Pharmacia Biotech) followed by HiTrap™-nickel affinity column (Amersham-Pharmacia Biotech). Purified ALK protein was used to screen inhibitors in the ELISA-based kinase assay. A Nunc Immuno 96 well plate was incubated overnight at 37° C. with coating solution (125 μL/well) containing ALK peptide substrate ([…]) (SEQ ID NO: 1) at various concentrations in PBS. Wells were then washed with 200 μL of wash buffer (PBS-Tween 0.05%) and left to dry for at least 2 h at 37° C. The kinase reaction was performed in the presence of 50 mM Tris pH 7.5, 5 mM MnCl2, 5 mM MgCl2, 0.3 mM ATP and purified rALK in a total volume of 100 μL/well at 30° C. for 15 min. […] Phosphorylated peptide was detected using 100 μL/well of a mouse monoclonal anti-phosphotyrosine antibody (clone 4G10 Upstate Biotech Ltd) diluted 1:2000 in PBS+4% BSA. […] The plate was developed using 100 μL/well TMB Substrate Solution (Endogen) and the reaction was stopped by adding an equiv.ual volume of H2SO4 0.36 M. Finally, the absorbance was read at 450 nm using an Ultrospec® 300 spectrophotometer (Amersham-Pharmacia Biotech). […]

The target in a further assay is Recombinant Ret protein (Homo sapiens, UniProt P07949). The assay is described as follows: RET kinase inhibitory activity, ELISA-based in vitro kinase assay. The format is biochemical. The conditions noted are these: read-out: RET IC50, purified Ret, 0.3 mM ATP. On the procedure:
as §5

For `O=S(=O)(c1ccccc1)n1c2ccc(-c3ccc(O)cc3)cc2c2cc(Cl)cnc21`, the IC50 worked out at 0.07 µM in assay [1], 0.94 µM in assay [2], 19 µM on Recombinant ALK kinase and 0.37 µM in the assay with ALK-negative U937 cells. For the same compound, the GI50 in assay [3] is 1.2 µM.
As for `COc1ccc(-c2ccc3[nH]c4ncc(Cl)cc4c3c2)cc1`, the IC50 in assay [4] was greater than 25 µM; in assay [2], greater than 13 µM; on Recombinant ALK kinase, 0.8 µM; on Recombinant Ret protein, 2 µM. The GI50 in assay [3] was greater than 13 µM.
`O=C(CSCCCO)c1ccc2[nH]c3ncc(Cl)cc3c2c1`: the values for the IC50 in assay [4] and in assay [2] were 17 µM and 42 µM, respectively. In addition, the GI50 in assay [3] stood at 5.3 µM.
In the case of `COc1ccc(-c2ccc3[nH]c4ncc(/C=C/c5cccc(F)c5)cc4c3c2)cc1`, at Recombinant ALK kinase, the IC50 was greater than 100 µM.
